Results as given in the supplement of paper PMC8728848.
The other results are listed elsewhere or left out.

Tests used:
Assay in all cases: glycan array binding signal (z-score within array); higher = stronger binding
Conditions in all cases: glycan notation: IUPAC condensed, linker removed
[1] = target: Fuc(a1-2)[GalNAc(b1-3)]Gal
Outline: (§1)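 Glycan array data were curated from 3228 arrays in the Consortium for Functional Glycomics database and kept only where the protein sequence was available. Glycan names were converted to IUPAC-condensed notation, and columns mapping to the same glycan were averaged. The binding signal is a within-array Z-score, averaged across arrays of the same protein sequence at different concentrations or buffers and across linkers. Negative Z-scores can be read as non-binding.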

Fuc(a1-3)GlcNAc = target: Fuc(a1-3)GlcNAc
Outline: as §1

[2] = target: Fuc(a1-3)[Gal(b1-4)]Glc6S
Outline: as §1

[3] = target: Fuc(a1-3)[Gal(b1-4)]GlcNAc
Outline: as §1

[4] = target: Fuc(a1-3)[Gal(b1-4)]GlcNAc(b1-2)Man
Outline: as §1

[5] = target: Fuc(a1-3)[Gal(b1-4)]GlcNAc(b1-2)Man(a1-3)[Fuc(a1-3)[Gal(b1-4)]GlcNAc(b1-2)Man(a1-6)]Man(b1-4)GlcNAc(b1-4)GlcNAc
Outline: as §1

[6] = target: Fuc(a1-3)[Gal(b1-4)]GlcNAc(b1-2)Man(a1-3)[Fuc(a1-3)[Gal(b1-4)]GlcNAc(b1-2)Man(a1-6)]Man(b1-4)GlcNAc(b1-4)[Fuc(a1-6)]GlcNAc
Outline: as §1

[7] = target: Fuc(a1-3)[Gal(b1-4)]GlcNAc(b1-3)Gal(b1-3)[Fuc(a1-4)]GlcNAc
Outline: as §1

[8] = target: Fuc(a1-3)[Gal(b1-4)]GlcNAc(b1-3)Gal(b1-4)[Fuc(a1-3)]GlcNAc
Outline: as §1

[9] = target: Fuc(a1-3)[Gal(b1-4)]GlcNAc(b1-3)Gal(b1-4)[Fuc(a1-3)]GlcNAc(b1-3)Gal(b1-4)[Fuc(a1-3)]GlcNAc
Outline: as §1

[10] = target: Fuc(a1-3)[Gal(b1-4)]GlcNAc(b1-3)GalNAc
Outline: as §1

[11] = target: Fuc(a1-3)[Gal(b1-4)]GlcNAc(b1-6)GalNAc
Outline: as §1

[12] = target: Fuc(a1-3)[Gal(b1-4)]GlcNAc(b1-6)[Gal(b1-3)GlcNAc(b1-3)]Gal(b1-4)Glc
Outline: as §1

[13] = target: Fuc(a1-3)[Gal(b1-4)]GlcNAc6S
Outline: as §1

[14] = target: Fuc(a1-3)[Gal3S(b1-4)]Glc
Outline: as §1

[15] = target: Fuc(a1-3)[Gal3S(b1-4)]GlcNAc
Outline: as §1

[16] = target: Fuc(a1-3)[Gal3S(b1-4)]GlcNAc6S
Outline: as §1

[17] = target: Fuc(a1-3)[GalNAc(b1-4)]GlcNAc
Outline: as §1

[18] = target: Fuc(a1-3)[GalNAc(b1-4)]GlcNAc6S
Outline: as §1

Fuc(a1-4)GlcNAc = target: Fuc(a1-4)GlcNAc
Outline: as §1

Fuc(b1-3)GlcNAc = target: Fuc(b1-3)GlcNAc
Outline: as §1

Gal(a1-2)Gal = target: Gal(a1-2)Gal
Outline: as §1

Gal(a1-3)Gal = target: Gal(a1-3)Gal
Outline: as §1

Gal(a1-3)Gal(b1-3)GlcNAc = target: Gal(a1-3)Gal(b1-3)GlcNAc
Outline: as §1

[19] = target: Gal(a1-3)Gal(b1-3)GlcNAc(b1-2)Man
Outline: as §1

[20] = target: Gal(a1-3)Gal(b1-3)GlcNAc(b1-2)Man(a1-3)[Gal(a1-3)Gal(b1-3)GlcNAc(b1-2)Man(a1-6)]Man(b1-4)GlcNAc(b1-4)GlcNAc
Outline: as §1

[21] = target: Gal(a1-3)Gal(b1-3)GlcNAc(b1-3)GalNAc
Outline: as §1

[22] = target: Gal(a1-3)Gal(b1-3)GlcNAc(b1-6)GalNAc
Outline: as §1

[23] = target: Gal(a1-3)Gal(b1-3)[Fuc(a1-4)]GlcNAc(b1-2)Man(a1-3)[Gal(a1-3)Gal(b1-3)[Fuc(a1-4)]GlcNAc(b1-2)Man(a1-6)]Man(b1-4)GlcNAc(b1-4)GlcNAc
Outline: as §1

Gal(a1-3)Gal(b1-4)Glc = target: Gal(a1-3)Gal(b1-4)Glc
Outline: as §1

Gal(a1-3)Gal(b1-4)GlcNAc = target: Gal(a1-3)Gal(b1-4)GlcNAc
Outline: as §1

[24] = target: Gal(a1-3)Gal(b1-4)GlcNAc(b1-2)Man
Outline: as §1

[25] = target: Gal(a1-3)Gal(b1-4)GlcNAc(b1-2)Man(a1-3)[Gal(a1-3)Gal(b1-4)GlcNAc(b1-2)Man(a1-6)]Man(b1-4)GlcNAc(b1-4)GlcNAc
Outline: as §1

[26] = target: Gal(a1-3)Gal(b1-4)GlcNAc(b1-3)GalNAc
Outline: as §1

[27] = target: Gal(a1-3)Gal(b1-4)GlcNAc(b1-6)GalNAc
Outline: as §1

[28] = target: Gal(a1-3)Gal(b1-4)[Fuc(a1-3)]GlcNAc
Outline: as §1

[29] = target: Gal(a1-3)Gal(b1-4)[Fuc(a1-3)]GlcNAc(b1-2)Man(a1-3)[Gal(a1-3)Gal(b1-4)[Fuc(a1-3)]GlcNAc(b1-2)Man(a1-6)]Man(b1-4)GlcNAc(b1-4)GlcNAc
Outline: as §1

B1: AT1G77380(17) (Arabidopsis thaliana), Q39134 (protein)
chain: MVQNHQTVLAVDMPQTGGSKYLDDDGKNKRTGSVWTASAHIITAVIGSGVLSLAWATAQLGWLAGPVVMLLFSAVTYFTSSLLAACYRSGDPISGKRNYTYMDAVRSNLGGVKVTLCGIVQYLNIFGVAIGYTIASAISMMAIKRSNCFHKSGGKDPCHMNSNPYMIAFGLVQILFSQIPDFDQLWWLSILAAVMSFTYSSAGLALGIAQVVVNGKVKGSLTGISIGAVTETQKIWRTFQALGDIAFAYSYSIILIEIQDTVKSPPSEEKTMKKATLVSVSVTTMFYMLCGCMGYAAFGDLSPGNLLTGFGFYNPYWLLDIANAAIVIHLIGAYQVYCQPLFAFIEKQASIQFPDSEFIAKDIKIPIPGFKPLRLNVFRLIWRTVFVIITTVISMLLPFFNDVVGLLGALGFWPLTVYFPVEMYIAQKKIPRWSTRWVCLQVFSLGCLVVSIAAAAGSIAGVLLDLKSYKPFRSEY
glycan array binding signal (z-score) [1]: -0.192
glycan array binding signal (z-score) (Fuc(a1-3)GlcNAc): 1.23
glycan array binding signal (z-score) [2]: -0.726
glycan array binding signal (z-score) [3]: -0.149
glycan array binding signal (z-score) [4]: -0.51
glycan array binding signal (z-score) [5]: 0.032
glycan array binding signal (z-score) [6]: -0.223
glycan array binding signal (z-score) [7]: 0.289
glycan array binding signal (z-score) [8]: -0.28
glycan array binding signal (z-score) [9]: -0.877
glycan array binding signal (z-score) [10]: 0.285
glycan array binding signal (z-score) [11]: 1.82
glycan array binding signal (z-score) [12]: 2.75
glycan array binding signal (z-score) [13]: -0.298
glycan array binding signal (z-score) [14]: -0.751
glycan array binding signal (z-score) [15]: 0.3
glycan array binding signal (z-score) [16]: -0.316
glycan array binding signal (z-score) [17]: -0.276
glycan array binding signal (z-score) [18]: -0.818
glycan array binding signal (z-score) (Fuc(a1-4)GlcNAc): 1.45
glycan array binding signal (z-score) (Fuc(b1-3)GlcNAc): -0.021
glycan array binding signal (z-score) (Gal(a1-2)Gal): 0.129
glycan array binding signal (z-score) (Gal(a1-3)Gal): -0.04
glycan array binding signal (z-score) (Gal(a1-3)Gal(b1-3)GlcNAc): -0.752
glycan array binding signal (z-score) [19]: -0.943
glycan array binding signal (z-score) [20]: 0.04
glycan array binding signal (z-score) [21]: -0.155
glycan array binding signal (z-score) [22]: -0.733
glycan array binding signal (z-score) [23]: 1.44
glycan array binding signal (z-score) (Gal(a1-3)Gal(b1-4)Glc): -0.793
glycan array binding signal (z-score) (Gal(a1-3)Gal(b1-4)GlcNAc): -0.02
glycan array binding signal (z-score) [24]: -0.461
glycan array binding signal (z-score) [25]: -0.526
glycan array binding signal (z-score) [26]: -0.346
glycan array binding signal (z-score) [27]: -0.872
glycan array binding signal (z-score) [28]: -0.879
glycan array binding signal (z-score) [29]: -0.4
